In PubChem BioAssay AID489008 (National Center for Advancing Translational Sciences (NCATS), 2010):
The inconclusive results got no clear call from the source; some entries with a clear call stand among them for comparison. Potencies of inconclusive entries are doubtful fits and often do not repeat. Active and inactive are the calls of the source. The call rests on the fitted dose curve; in most records, active means well fitted inhibition curve with a large enough effect; inconclusive means small, poorly fitted or top-dose-only effect; inactive means flat fitted curve, though single readings scatter.

By UniProt entry, the sequences of proteins in these tests, tags left out. Residues count along the entry.
UniProt P02791, 2-175 limits assumed: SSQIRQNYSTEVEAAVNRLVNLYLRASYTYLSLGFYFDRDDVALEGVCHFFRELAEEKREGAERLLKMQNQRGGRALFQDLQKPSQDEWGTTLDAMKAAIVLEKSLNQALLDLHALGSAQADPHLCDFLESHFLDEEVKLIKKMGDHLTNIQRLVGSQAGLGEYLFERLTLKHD

Target: Ferritin light chain (Equus caballus) (UniProt P02791)
Assay: Confirmation Assay for Identification of Novel General Anesthetics; further: nearly all actives have a fitted effect of over 40% in size
Conditions: apoferritin 1-aminoanthracene fluorescence displacement
Method in brief: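 Horse apoferritin (10 uM) pre-loaded with 1-AMA (50% saturated, PBS) exposed to compounds 10 min at room temperature; loss of 1-AMA fluorescence (380/535 nm) scaled between free and bound ligand, curves fitted with Hill equation.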
Potency means the concentration at half of the fitted maximal effect.

Structure (SMILES)	Potency
COc1ccccc1C(=O)Oc1ccc(C(C)C)cc1	inconclusive: 31.6 µM [inhibitor, partial curve]
O=C(OCC1COc2ccccc2O1)c1c(F)cccc1F (stereo not drawn)	inconclusive: 39.8 µM [inhibitor, partial curve]
CC1CCCCC1NC(=O)COC(=O)COc1ccc(Cl)cc1 (stereo not drawn)	inconclusive: 17.8 µM [inhibitor, partial curve]
CCN(CC)S(=O)(=O)c1ccc(N2CCc3ccccc3C2)nc1	inconclusive: 39.8 µM [inhibitor, partial curve]
Cc1ccccc1CSCC(=O)NC(=O)NC(C)(C)C	inconclusive: 28.2 µM [inhibitor, partial curve]
O=C(CC1CC2CCC1C2)OCC(=O)c1c[nH]c2ccccc12 (stereo not drawn)	inconclusive: 31.6 µM [inhibitor, partial curve]
CCOC(=O)CCC(=O)OCC(=O)NC(C)C1CC2CCC1C2 (stereo not drawn)	inconclusive: 35.5 µM [inhibitor, partial curve]
COc1ccc(S(=O)(=O)NCCc2ccccc2)cc1	inconclusive: 31.6 µM [inhibitor, partial curve]
CC(C)(C)c1ccc(OCCC(=O)NC2=NCCS2)cc1	active: 20 µM
CCN(CC)c1ccc(NC(=O)Nc2cccc(C(C)=O)c2)cc1	inconclusive: 22.4 µM [inhibitor, partial curve]
CC1(C)C2CCC1(C)C(OC(=O)CCn1ccnc1)C2 (stereo not drawn)	inconclusive: 25.1 µM [inhibitor, partial curve]
O=S(=O)(NCCC1=CCCCC1)c1ccc(F)cc1	active: 8.91 µM
CCC1CCCCN1C(=O)COC(=O)c1cc2ccccc2cc1O (stereo not drawn)	inconclusive: 39.8 µM [inhibitor, partial curve]
COCn1c(-c2cccc(Br)c2)nc2ccccc21	inconclusive: 35.5 µM [inhibitor, partial curve]
OC1CCCCC1Sc1nc2ccccc2s1 (stereo not drawn)	inconclusive: 39.8 µM [inhibitor, partial curve]
Cc1ccc(NC(=O)COC(=O)CCC(=O)c2cccs2)cc1C	inconclusive: 28.2 µM [inhibitor, partial curve]
Nc1ccc(Oc2ccc(Cl)cc2)cc1	inconclusive: 25.1 µM [inhibitor, partial curve]

Single entries from the results shown.
Value for OC1CCCCC1Sc1nc2ccccc2s1 (stereo not drawn) under Potency: inconclusive: 39.8 µM [inhibitor, partial curve]
Value for COc1ccc(S(=O)(=O)NCCc2ccccc2)cc1 under Potency: inconclusive: 31.6 µM [inhibitor, partial curve]

Additional records follow.

Structure (SMILES)	Potency
O=C(COC(=O)c1ccccn1)NC12CC3CC(CC(C3)C1)C2	active: 7.94 µM
CCCc1ccc(Oc2cn[nH]c2-c2ccc(O)cc2O)cc1	inconclusive: 28.2 µM [inhibitor, partial curve]
Cc1ccc(Cn2ccc(NC(=O)c3noc4c3CCCCC4)n2)cc1	inconclusive: 35.5 µM [inhibitor, partial curve]
O=C(CSC(=S)N1CCCC1)c1ccccc1	inconclusive: 28.2 µM [inhibitor, partial curve]
O=c1ccc(/C=C/c2ccccc2)nn1Cc1ccccc1Cl	inconclusive: 35.5 µM [inhibitor, partial curve]
Cc1ccc(NC(=O)Cn2nc(C)c3ccccc3c2=O)cc1F	inconclusive: 44.7 µM [inhibitor, partial curve]
Cc1cc(C)cc(C(=O)N2CCCCCC2)c1	active: 20 µM
Cc1ccc(NCc2ccccc2O)cc1C	inconclusive: 5.01 µM [inhibitor, full curve]
COc1ccccc1CC(=O)N1CCCc2ccccc21	active: 31.6 µM
Cc1cc(OCCCCCNCCO)cc(C)c1Cl	inconclusive: 31.6 µM [inhibitor, partial curve]
Cc1cc(NC(=O)COC(=O)COc2ccc3c(c2)CCC3)no1	inconclusive: 17.8 µM [inhibitor, partial curve]
CCN(CC)C(=O)c1cc2sc3ccccc3c2s1	inconclusive: 35.5 µM [inhibitor, partial curve]
O=[N+]([O-])c1ccccc1/C=N/N1CCN(c2ccccn2)CC1	inconclusive: 31.6 µM [inhibitor, partial curve]
O=C(NCc1ccc(Cl)cc1Cl)C(=O)N1CCCCC1	inconclusive: 28.2 µM [inhibitor, partial curve]
COc1ccccc1CC(=O)NC12CC3CC(CC(C3)C1)C2	active: 12.6 µM
Cn1ccnc1SCC(=O)c1cccc(Br)c1	inconclusive: 15.8 µM [inhibitor, partial curve]
